{"sequences": {"note": "Chains of the proteins cited; added tags and fusions are not shown. Residues count along the entry.", "UniProt P02671, 124-216": "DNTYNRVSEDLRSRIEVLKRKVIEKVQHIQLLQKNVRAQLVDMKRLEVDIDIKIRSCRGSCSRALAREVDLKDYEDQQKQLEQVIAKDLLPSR", "UniProt P02671, 36-97": "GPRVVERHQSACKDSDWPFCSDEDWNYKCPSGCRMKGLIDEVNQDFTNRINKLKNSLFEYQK", "UniProt P02675, 164-491": "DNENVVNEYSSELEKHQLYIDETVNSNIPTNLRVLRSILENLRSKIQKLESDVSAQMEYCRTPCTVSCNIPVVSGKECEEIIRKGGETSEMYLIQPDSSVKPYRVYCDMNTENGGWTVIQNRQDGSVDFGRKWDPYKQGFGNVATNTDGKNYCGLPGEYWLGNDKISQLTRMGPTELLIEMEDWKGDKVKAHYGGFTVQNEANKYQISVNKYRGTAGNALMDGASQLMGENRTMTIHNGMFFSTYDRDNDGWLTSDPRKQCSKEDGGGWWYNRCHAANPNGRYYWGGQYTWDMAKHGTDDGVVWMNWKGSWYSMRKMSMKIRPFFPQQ", "UniProt P02675, 45-152": "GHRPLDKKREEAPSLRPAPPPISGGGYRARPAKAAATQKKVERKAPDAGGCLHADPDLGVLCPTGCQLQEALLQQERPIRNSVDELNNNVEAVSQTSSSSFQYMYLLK", "UniProt P02679, 114-432": "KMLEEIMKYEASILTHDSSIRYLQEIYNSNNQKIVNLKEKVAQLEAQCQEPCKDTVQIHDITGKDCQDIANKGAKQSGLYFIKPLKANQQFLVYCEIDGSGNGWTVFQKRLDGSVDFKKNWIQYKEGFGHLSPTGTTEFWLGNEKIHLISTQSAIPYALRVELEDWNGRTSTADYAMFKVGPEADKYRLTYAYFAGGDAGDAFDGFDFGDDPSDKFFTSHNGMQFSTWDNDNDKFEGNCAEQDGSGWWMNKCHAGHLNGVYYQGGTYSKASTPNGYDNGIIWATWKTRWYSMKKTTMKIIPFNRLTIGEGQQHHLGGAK", "UniProt P02679, 27-88": "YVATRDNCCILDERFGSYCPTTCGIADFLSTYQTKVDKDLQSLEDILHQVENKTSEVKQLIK"}, "source": "patent US7927581B2", "about": "“Peptide-based multimeric targeted contrast agents” (Factor 1A, LLC, priority 2001, dated 2011)", "note": "For at least one compound, name, drawing or mass did not settle the structure. Positions of bridges follow the written chain, without caps; N, C: chain ends. Non-standard residues stand in square brackets, D forms with d. Residues, ends and D or L forms follow the SMILES beside them. *: point of attachment. FITC = O=C1OC2(c3ccc(O)cc3Oc3cc(O)ccc32)c2ccc(NC(=S)*)cc21; Acetyl(guanin-9-yl) = Nc1nc2c(ncn2CC(=O)*)c(=O)[nH]1; Tyr(3-I) = N[C@@H](Cc1ccc(O)c(I)c1)C(=O)O; Gly(N-2-aminoethyl) = NCCNCC(=O)O; Hyp = O=C(O)[C@@H]1C[C@@H](O)CN1; Ahx = NCCCCCC(=O)O", "data": [{"target": "fibrin DD(E) fragment (Homo sapiens, UniProt P02671+P02675+P02679)", "experiment": "Fibrin DD(E) fragment affinity of optical contrast agents", "assay_type": "binding", "details": "fluorescein-labeled peptides; read-out: Kd (μM) Vs. DD(E)", "method": "(§1) NovaSyn TGR resin (0.20 mmol/g, 100 mg, 20 μmol) was washed with NMP/ether/NMP. The peptide was assembled by the standard solid phase method using the PyBOP/HOBt/DIEA activation. After the coupling of the final amino acid residue, the resin bound peptide was treated with a solution of piperidine in DMF (20% by volume, 2.0 mL) for 10 minutes to remove the Fmoc protecting group. The resin was washed thoroughly with NMP/ether/NMP, and was treated with a solution of fluorascein-5-isothiocyanate (23.4 mg, 60 μmol) and duisopropylethylamine (11.6 mg, 15.7 μL, 90 μmol) in DMF (1.5 mL) for 12 hours. The resin was washed thoroughly (NMP/ether/NMP), and treated with a solution of Tl (TFA)3 (18.7 mg, 34.5 μmol) in DMF (1.5 mL) at 4° C. for three hours. The resin was washed after this treatment, and treated with a cocktail of TFA/TIS/water (95/2.5/2.5, 2.0 mL) for two hours. The crude peptide was precipitated by adding ether to the cleavage cocktail, and purified by preparative HPLC using a Vydac C-18 column. Structures A-N were formed in this manner and their fibrin DD(E) fragment affinities were determined (Table 5).\n(§2) N-terminal labeling of the peptides with optical probes can modulate the binding affinity of the optical contrast agents. For example, when comparing fluorescein, 4-methoxycoumarin and tetramethylrhodamine derivatives of the peptide (QWECPYGLCWIQ (SEQ ID NO:27); Kd=3 μM) the following Kd's were observed (Table 6): […]", "units": {"Kd": "µM"}, "values": [{"smiles": "CC[C@H](C)[C@H](NC(=O)[C@H](Cc1c[nH]cn1)NC(=O)[C@@H]1CSSC[C@H](NC(=O)[C@H](Cc2c[nH]cn2)NC(=O)[C@H](Cc2ccccc2)NC(=O)[C@H](CCCCN)NC(=S)Nc2ccc3c(c2)C(=O)OC32c3ccc(O)cc3Oc3cc(O)ccc32)C(=O)N2C[C@H](O)C[C@H]2C(=O)N[C@@H](Cc2ccc(O)c(I)c2)C(=O)N[C@@H](CC(=O)O)C(=O)N[C@@H](CC(C)C)C(=O)N1)C(N)=O", "note": "[Compound F] (HELM PEPTIDE1{[O=C1OC2(c3ccc(O)cc3Oc3cc(O)ccc32)c2ccc(NC(=S)[*:2])cc21].K.F.H.C.[Hyp].[O=C([C@H](Cc1ccc(O)c(I)c1)N[*:1])[*:2]].D.L.C.H.I.[am]}$PEPTIDE1,PEPTIDE1,5:R3-10:R3$$$V2.0)", "Kd": 0.212}, {"smiles": "CC[C@H](C)[C@H](NC(=O)[C@H](Cc1c[nH]cn1)NC(=O)[C@@H]1CSSC[C@H](NC(=O)[C@H](Cc2c[nH]cn2)NC(=O)[C@H](Cc2ccccc2)NC(=O)CNC(=O)CNC(=O)[C@H](CCCCN)NC(=S)Nc2ccc3c(c2)C(=O)OC32c3ccc(O)cc3Oc3cc(O)ccc32)C(=O)N2C[C@H](O)C[C@H]2C(=O)N[C@@H](Cc2ccc(O)c(I)c2)C(=O)N[C@@H](CC(=O)O)C(=O)N[C@@H](CC(C)C)C(=O)N1)C(N)=O", "note": "[I] (HELM PEPTIDE1{[O=C1OC2(c3ccc(O)cc3Oc3cc(O)ccc32)c2ccc(NC(=S)[*:2])cc21].K.G.G.F.H.C.[Hyp].[O=C([C@H](Cc1ccc(O)c(I)c1)N[*:1])[*:2]].D.L.C.H.I.[am]}$PEPTIDE1,PEPTIDE1,7:R3-12:R3$$$V2.0)", "Kd": 0.127}, {"smiles": "CC[C@H](C)[C@H](NC(=O)[C@H](Cc1c[nH]cn1)NC(=O)[C@@H]1CSSC[C@H](NC(=O)[C@H](Cc2c[nH]cn2)NC(=O)[C@H](Cc2ccccc2)NC(=O)CCCCCNC(=S)Nc2ccc3c(c2)C(=O)OC32c3ccc(O)cc3Oc3cc(O)ccc32)C(=O)N2C[C@H](O)C[C@H]2C(=O)N[C@@H](Cc2ccc(O)c(I)c2)C(=O)N[C@@H](CC(=O)O)C(=O)N[C@@H](CC(C)C)C(=O)N1)C(N)=O", "note": "[B] ({FITC-Ahx}-FHC[Hyp][Tyr(3-I)]DLCHI-NH2; disulfide 3-8)", "Kd": 0.099}, {"smiles": "CC[C@H](C)[C@H](NC(=O)[C@H](Cc1c[nH]cn1)NC(=O)[C@@H]1CSSC[C@H](NC(=O)[C@H](Cc2c[nH]cn2)NC(=O)[C@H](Cc2ccccc2)NC(=O)CNC(=O)[C@H](CCCCN)NC(=S)Nc2ccc3c(c2)C(=O)OC32c3ccc(O)cc3Oc3cc(O)ccc32)C(=O)N2C[C@H](O)C[C@H]2C(=O)N[C@@H](Cc2ccc(O)c(I)c2)C(=O)N[C@@H](CC(=O)O)C(=O)N[C@@H](CC(C)C)C(=O)N1)C(N)=O", "note": "[G] (HELM PEPTIDE1{[O=C1OC2(c3ccc(O)cc3Oc3cc(O)ccc32)c2ccc(NC(=S)[*:2])cc21].K.G.F.H.C.[Hyp].[O=C([C@H](Cc1ccc(O)c(I)c1)N[*:1])[*:2]].D.L.C.H.I.[am]}$PEPTIDE1,PEPTIDE1,6:R3-11:R3$$$V2.0)", "Kd": 0.124}, {"smiles": "CC[C@H](C)[C@H](NC(=O)[C@H](Cc1c[nH]cn1)NC(=O)[C@@H]1CSSC[C@H](NC(=O)[C@H](Cc2c[nH]cn2)NC(=O)[C@H](Cc2ccccc2)NC(=O)CCNC(=S)Nc2ccc3c(c2)C(=O)OC32c3ccc(O)cc3Oc3cc(O)ccc32)C(=O)N2C[C@H](O)C[C@H]2C(=O)N[C@@H](Cc2ccc(O)c(I)c2)C(=O)N[C@@H](CC(=O)O)C(=O)N[C@@H](CC(C)C)C(=O)N1)C(N)=O", "note": "[A] (HELM PEPTIDE1{[O=C1OC2(c3ccc(O)cc3Oc3cc(O)ccc32)c2ccc(NC(=S)[*:2])cc21].[bAla].F.H.C.[Hyp].[O=C([C@H](Cc1ccc(O)c(I)c1)N[*:1])[*:2]].D.L.C.H.I.[am]}$PEPTIDE1,PEPTIDE1,5:R3-10:R3$$$V2.0)", "Kd": 0.136}, {"smiles": "CC[C@H](C)[C@H](NC(=O)[C@H](Cc1c[nH]cn1)NC(=O)[C@@H]1CSSC[C@H](NC(=O)[C@H](Cc2c[nH]cn2)NC(=O)[C@H](Cc2ccccc2)NC(=O)[C@H](Cc2c[nH]c3ccccc23)NC(=O)[C@H](CCCCN)NC(=S)Nc2ccc3c(c2)C(=O)OC32c3ccc(O)cc3Oc3cc(O)ccc32)C(=O)N2C[C@H](O)C[C@H]2C(=O)N[C@@H](Cc2ccc(O)c(I)c2)C(=O)N[C@@H](CC(=O)O)C(=O)N[C@@H](CC(C)C)C(=O)N1)C(N)=O", "note": "[H] (HELM PEPTIDE1{[O=C1OC2(c3ccc(O)cc3Oc3cc(O)ccc32)c2ccc(NC(=S)[*:2])cc21].K.W.F.H.C.[Hyp].[O=C([C@H](Cc1ccc(O)c(I)c1)N[*:1])[*:2]].D.L.C.H.I.[am]}$PEPTIDE1,PEPTIDE1,6:R3-11:R3$$$V2.0)", "Kd": 0.119}]}, {"target": "fibrin DD(E) fragment (Homo sapiens, UniProt P02671+P02675+P02679)", "experiment": "Fibrin DD(E) fragment affinity of optical contrast agents", "assay_type": "binding", "details": "unlabeled parent peptide; read-out: Kd", "method": "as §1, §2", "units": {"Kd": "µM"}, "values": [{"smiles": "CC[C@H](C)[C@H](NC(=O)[C@H](Cc1c[nH]c2ccccc12)NC(=O)[C@@H]1CSSC[C@H](NC(=O)[C@H](CCC(=O)O)NC(=O)[C@H](Cc2c[nH]c3ccccc23)NC(=O)[C@@H](N)CCC(N)=O)C(=O)N2CCC[C@H]2C(=O)N[C@@H](Cc2ccc(O)cc2)C(=O)NCC(=O)N[C@@H](CC(C)C)C(=O)N1)C(=O)N[C@@H](CCC(N)=O)C(N)=O", "note": "[QWECPYGLCWIQ] (HELM PEPTIDE1{Q.W.E.C.P.Y.G.L.C.W.I.Q.[am]}$PEPTIDE1,PEPTIDE1,4:R3-9:R3$$$V2.0; N-terminus and C-terminus assumed)", "Kd": 3}]}, {"target": "DD(E) fragment of fibrin (Homo sapiens, UniProt P02671+P02675+P02679)", "experiment": "Affinity of cyclized peptides to the DD(E) fragment of fibrin", "assay_type": "binding", "details": "not given", "units": {"Kd": "µM"}, "values": [{"smiles": "CC[C@H](C)[C@H](NC(=O)[C@H](Cc1c[nH]cn1)NC(=O)[C@@H]1CSSC[C@H](NC(=O)[C@H](Cc2c[nH]cn2)NC(=O)[C@@H](N)Cc2ccc(C#N)cc2)C(=O)N2C[C@H](O)C[C@H]2C(=O)N[C@@H](Cc2ccc(O)c(I)c2)C(=O)N[C@@H](CC(=O)O)C(=O)N[C@@H](CC(C)C)C(=O)N1)C(N)=O", "note": "[F(4-CN) H C Hyp Y(3-I) D L C H I] (HELM PEPTIDE1{[N#Cc1ccc(C[C@H](N)C(=O)[*:2])cc1].H.C.[Hyp].[O=C([C@H](Cc1ccc(O)c(I)c1)N[*:1])[*:2]].D.L.C.H.I.[am]}$PEPTIDE1,PEPTIDE1,3:R3-8:R3$$$V2.0; N-terminus and C-terminus assumed)", "Kd": "≤ 0.1"}, {"smiles": "CC[C@H](C)[C@H](NC(=O)[C@H](Cc1c[nH]cn1)NC(=O)[C@@H]1CSSC[C@H](NC(=O)[C@H](Cc2c[nH]cn2)NC(=O)[C@@H](N)Cc2ccc(N)cc2)C(=O)N2C[C@H](O)C[C@H]2C(=O)N[C@@H](Cc2ccc(O)c(I)c2)C(=O)N[C@@H](CC(=O)O)C(=O)N[C@@H](CC(C)C)C(=O)N1)C(N)=O", "note": "[F(4-NH2) H C Hyp Y(3-I) D L C H I] (HELM PEPTIDE1{[Nc1ccc(C[C@H](N)C(=O)[*:2])cc1].H.C.[Hyp].[O=C([C@H](Cc1ccc(O)c(I)c1)N[*:1])[*:2]].D.L.C.H.I.[am]}$PEPTIDE1,PEPTIDE1,3:R3-8:R3$$$V2.0; N-terminus and C-terminus assumed)", "Kd": "≤ 0.1"}, {"smiles": "CC(C)C[C@@H]1NC(=O)[C@H](CC(=O)O)NC(=O)[C@H](Cc2ccc(O)c(I)c2)NC(=O)[C@@H]2C[C@@H](O)CN2C(=O)[C@@H](NC(=O)[C@H](Cc2c[nH]cn2)NC(=O)[C@@H](N)Cc2ccccc2)CSSC[C@@H](C(=O)N[C@@H](Cc2c[nH]cn2)C(=O)N[C@H](C(N)=O)C(C)(C)C)NC1=O", "note": "[F H C Hyp Y(3-I) D L C H Tle] (HELM PEPTIDE1{F.H.C.[Hyp].[O=C([C@H](Cc1ccc(O)c(I)c1)N[*:1])[*:2]].D.L.C.H.[CC(C)(C)[C@H](N[*:1])C(=O)[*:2]].[am]}$PEPTIDE1,PEPTIDE1,3:R3-8:R3$$$V2.0; N-terminus and C-terminus assumed)", "Kd": "≤ 0.1"}, {"smiles": "CC[C@H](C)[C@H](NC(=O)[C@H](Cc1c[nH]cn1)NC(=O)[C@@H]1CSSC[C@H](NC(=O)[C@H](Cc2c[nH]cn2)NC(=O)[C@@H](N)Cc2cccc(O)c2)C(=O)N2C[C@H](O)C[C@H]2C(=O)N[C@@H](Cc2ccc(O)c(I)c2)C(=O)N[C@@H](CC(=O)O)C(=O)N[C@@H](CC(C)C)C(=O)N1)C(N)=O", "note": "[MTyr H C Hyp Y(3-I) D L C H I] (HELM PEPTIDE1{[N[C@@H](Cc1cccc(O)c1)C(=O)[*:2]].H.C.[Hyp].[O=C([C@H](Cc1ccc(O)c(I)c1)N[*:1])[*:2]].D.L.C.H.I.[am]}$PEPTIDE1,PEPTIDE1,3:R3-8:R3$$$V2.0; N-terminus and C-terminus assumed)", "Kd": "≤ 0.1"}, {"smiles": "CC[C@H](C)[C@H](NC(=O)[C@H](Cc1cccnc1)NC(=O)[C@@H]1CSSC[C@H](NC(=O)[C@H](Cc2c[nH]cn2)NC(=O)[C@@H](N)Cc2ccccc2)C(=O)N2C[C@H](O)C[C@H]2C(=O)N[C@@H](Cc2ccc(O)c(I)c2)C(=O)N[C@@H](CC(=O)O)C(=O)N[C@@H](CC(C)C)C(=O)N1)C(N)=O", "note": "[F H C Hyp Y(3-I) D L C 3Pal I] (HELM PEPTIDE1{F.H.C.[Hyp].[O=C([C@H](Cc1ccc(O)c(I)c1)N[*:1])[*:2]].D.L.C.[O=C([C@H](Cc1cccnc1)N[*:1])[*:2]].I.[am]}$PEPTIDE1,PEPTIDE1,3:R3-8:R3$$$V2.0; N-terminus and C-terminus assumed)", "Kd": "≤ 0.1"}, {"smiles": "CC[C@H](C)[C@H](NC(=O)[C@H](Cc1c[nH]cn1)NC(=O)[C@@H]1CSSC[C@H](NC(=O)[C@H](Cc2c[nH]cn2)NC(=O)CN(CCN)C(=O)Cn2cnc3c(=O)[nH]c(N)nc32)C(=O)N2C[C@H](O)C[C@H]2C(=O)N[C@@H](Cc2ccc(O)c(I)c2)C(=O)N[C@@H](CC(=O)O)C(=O)N[C@@H](CC(C)C)C(=O)N1)C(N)=O", "note": "[Gu H C Hyp Y(3-I) D L C H I] ({Acetyl(guanin-9-yl)}-[Gly(N-2-aminoethyl)]HC[Hyp][Tyr(3-I)]DLCHI-NH2; disulfide 3-8; N-terminus and C-terminus assumed)", "Kd": "≤ 0.5"}]}]}
